According to publication PMC7756940:
These are yes or no findings as the source states them, for the method shown. Binding seen in cells or lysates may run through a third protein. Some binding calls cover weakened binding; strength is not graded here.

Protein sequences, listed by entry. Tags and fused reporters are not part of them.
UniProt P29590: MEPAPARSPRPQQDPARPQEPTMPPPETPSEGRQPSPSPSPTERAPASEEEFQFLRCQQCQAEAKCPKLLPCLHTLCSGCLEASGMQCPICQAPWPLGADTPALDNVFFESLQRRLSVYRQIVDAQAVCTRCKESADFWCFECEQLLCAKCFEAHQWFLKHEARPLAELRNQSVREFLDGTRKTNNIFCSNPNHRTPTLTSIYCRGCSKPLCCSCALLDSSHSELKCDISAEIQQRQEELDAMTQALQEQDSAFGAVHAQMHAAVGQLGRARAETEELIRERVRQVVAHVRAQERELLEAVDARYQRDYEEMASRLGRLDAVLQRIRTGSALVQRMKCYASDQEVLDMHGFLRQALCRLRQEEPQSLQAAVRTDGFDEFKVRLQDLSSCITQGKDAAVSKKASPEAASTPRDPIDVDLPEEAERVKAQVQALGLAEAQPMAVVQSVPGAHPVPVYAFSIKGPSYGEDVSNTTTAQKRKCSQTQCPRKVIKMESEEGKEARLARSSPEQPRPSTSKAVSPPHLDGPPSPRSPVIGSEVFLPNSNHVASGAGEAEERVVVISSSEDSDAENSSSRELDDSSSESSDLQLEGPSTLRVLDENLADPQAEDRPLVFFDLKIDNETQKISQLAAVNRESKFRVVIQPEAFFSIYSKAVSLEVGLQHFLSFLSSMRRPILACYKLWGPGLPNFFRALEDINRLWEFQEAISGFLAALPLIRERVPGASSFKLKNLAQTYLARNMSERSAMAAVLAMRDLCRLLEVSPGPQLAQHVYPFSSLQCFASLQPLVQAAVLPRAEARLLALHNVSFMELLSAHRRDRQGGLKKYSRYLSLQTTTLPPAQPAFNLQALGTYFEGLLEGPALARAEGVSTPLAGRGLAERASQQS
UniProt P46937: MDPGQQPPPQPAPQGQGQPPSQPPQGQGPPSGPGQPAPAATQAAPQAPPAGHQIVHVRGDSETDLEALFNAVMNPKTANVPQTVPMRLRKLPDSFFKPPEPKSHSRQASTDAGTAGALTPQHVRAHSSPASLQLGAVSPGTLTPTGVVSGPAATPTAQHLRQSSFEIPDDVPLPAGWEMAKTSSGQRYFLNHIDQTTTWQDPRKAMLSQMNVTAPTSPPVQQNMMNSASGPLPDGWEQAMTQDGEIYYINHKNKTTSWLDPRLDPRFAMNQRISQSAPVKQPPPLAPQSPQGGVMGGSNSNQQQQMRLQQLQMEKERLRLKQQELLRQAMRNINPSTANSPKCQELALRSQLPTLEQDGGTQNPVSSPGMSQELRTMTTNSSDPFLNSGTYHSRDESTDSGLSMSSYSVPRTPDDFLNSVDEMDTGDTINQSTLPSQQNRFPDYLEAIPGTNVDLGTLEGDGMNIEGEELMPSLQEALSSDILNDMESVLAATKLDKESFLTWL

Target: PML (human (endogenous in KYSE-450)) (UniProt P29590)
Assay: co-IP; KYSE-450 cell lysate (Pierce IP lysis buffer); mouse anti-PML mAb with protein G beads, 4 C, 16 h; beads washed four times with ten-fold diluted urea buffer; western blot

binding: binds
Substance: YAP (from UniProt P46937 1-504)
